Test results taken from patent US4110472A, “Derivatives of 1-(disubstituted phenoxy)-3-amino-2-hydroxypropanes” (Bayer Aktiengesellschaft, priority 1975, dated 1978).

Key:
cerebral blood flow = experiment: Increase in the cerebral blood flow in cats (133 xenon clearance); conditions: peroral, 100 mg/kg
[1] = system: 7-minute complete cerebral ischaemia; experiment: Restricted circulation and mortality after a transient total cerebral ischaemia (experimental apoplexy); type: in vivo; conditions: cats
Procedure: 3. Restricted circulation and mortality after a transient total cerebral ischaemia ("experimental apoplexy")
A 7-minute complete cerebral ischaemia is caused in curarized cats by inflating a collar placed around the neck.
For cats which have not been pre-treated, the 7-minute cerebral ischaemia is fatal, 94% of all the control animals dying within 48 hours.

## C(=C\c1ccccc1)/CN1CCN(C(c2ccccc2)c2ccccc2)CC1 [cinnarizin, 1-cinnamyl-4-diphenylmethylpiperazin, reference compound]
Cerebral blood flow
  activity on cerebral blood flow (in words): inactive
[1]
  activity in the experimental apoplexy test (in words): inactive
